From PubChem BioAssay AID248 (DTP/NCI, 2004) come the findings set out here.

In this assay the test system is L1210 leukemia ip in BDF1 mice, survival T/C. The assay can be described thus: NCI In Vivo Anticancer Drug Screen. Data for tumor model L1210 Leukemia (intraperitoneal) in B6D2F1 (BDF1) mice. The note with it: T/C endpoint: mean survival time, higher T/C = longer survival.
[1] abbreviates: dose: 400.0 mg/kg/injection, schedule: Q04DX003 (ip), vehicle: saline with Tween-80.
Where [2] appears, read: dose: 200.0 mg/kg/injection, schedule: Q01DX009 (ip), vehicle: Klucel (hydroxypropylcellulose) (HPC).
Setting [3] is: dose: 400.0 mg/kg/injection, schedule: Q01DX001 (ip), vehicle: saline.
[4] abbreviates: dose: 100.0 mg/kg/injection, schedule: Q01DX009 (ip), vehicle: carboxymethylcellulose (CMC).
Where [5] appears, read: dose: 200.0 mg/kg/injection, schedule: Q01DX009 (ip), vehicle: carboxymethylcellulose (CMC).
Setting [6] is: dose: 100.0 mg/kg/injection, schedule: Q01DX009 (ip), vehicle: saline with Tween-80.
The mark [7] stands for this setting: dose: 200.0 mg/kg/injection, schedule: Q04DX003 (ip), vehicle: acetone.
Where [8] appears, read: dose: 400.0 mg/kg/injection, schedule: Q04DX003 (ip), vehicle: acetone.
The mark [9] stands for this setting: dose: 400.0 mg/kg/injection, schedule: Q04DX002 (ip), vehicle: Klucel (hydroxypropylcellulose) (HPC).
The mark [10] stands for this setting: dose: 200.0 mg/kg/injection, schedule: Q04DX002 (ip), vehicle: Klucel (hydroxypropylcellulose) (HPC).

The list is a part of this screen's results and no random one: it gathers tests that were run many times, whatever their T/C, doses with no T/C, and many T/C values between a quarter and a half above the control. Other doses and runs of a compound stand elsewhere. T/C gives the treated animals as a percentage of the vehicle group. Some entries give survivors of the animals treated and no T/C: the source files T/C as zero there, which appears to mark a toxic dose or a test without result, not a measured value. Some survivor counts are full or nearly so, which does not show that the dose was tolerated: the source hardly ever lists a survival T/C far under the control, and the zero likely stands for such cases as well. Counts of survivors are from the toxicity check (mostly the fifth day) where no day follows; animals may have died later. Schedule codes are those of the source, taken here to give the interval after Q, in days (D) or hours (H), and the number of doses after X. Some entries were tested several times; their values stand side by side, smallest first. Where survival is the endpoint, the PubChem record calls one and a half times the control and up active, and a quarter to a half above the control has no call in these data; cut-offs in other NCI protocols can differ. Some T/C values are followed by the survivors on the day toxicity was checked, most often the fifth; without a count, all were alive then. Signs of the kind (2×) give the number of equal values in this list.

Regarding `CC(C)C1=CC2=CCC3C(C)(CN)CCCC3(C)C2CC1CCN` (configuration not stated), the survivor count runs as follows: (dose: 10.0 mg/kg/injection, schedule: Q04DX003 (ip), vehicle: saline with Tween-80) 2 of 6; (dose: 20.0 mg/kg/injection, schedule: Q04DX003 (ip), vehicle: saline with Tween-80) 2 of 6; (dose: 100.0 mg/kg/injection, schedule: Q04DX003 (ip), vehicle: saline with Tween-80) 0 of 6; (dose: 200.0 mg/kg/injection, schedule: Q04DX003 (ip), vehicle: saline with Tween-80) 0 of 6; under setting [1], 0 of 6.

Regarding `N=C(N)c1ccc(OCCCCOc2ccc(N)cc2Cl)cc1`, the survivor count under setting [2] is given as 0 of 3.

In the case of `CCN(CC)c1ccc(SC#N)cc1`, the survivor count by setting is: (dose: 200.0 mg/kg/injection, schedule: Q01DX001 (ip), vehicle: saline) 0 of 4; under setting [3], 0 of 4.

Consider `CC[NH-].[Cl][Pt+2][Cl].[NH2-]`, for which the T/C reads like this: (dose: 1.5 mg/kg/injection, schedule: Q01DX009 (ip), vehicle: other) 127 % of control; (dose: 6.0 mg/kg/injection, schedule: Q01DX001 (ip), vehicle: other) 131 % of control.

`O=S1(=O)CC(Cl)C1`: the survivor count (dose: 400.0 mg/kg/injection, schedule: Q01DX001 (ip), vehicle: carboxymethylcellulose (CMC)) is 1 of 4.

For the compound `Cc1c(Cl)cccc1NC(=O)Oc1cc(Cl)c(Cl)cc1Cl`, the survivor count runs as follows: (dose: 200.0 mg/kg/injection, schedule: Q01DX009 (ip), vehicle: saline with Tween-80) 1 of 6; under setting [1], 2 of 6.

Regarding `Nc1ccc(S(=O)c2ccc(N)cc2)cc1`, the survivor count reads like this: (dose: 100.0 mg/kg/injection, schedule: Q04DX002 (ip), vehicle: other) 0 of 3; (dose: 200.0 mg/kg/injection, schedule: Q04DX002 (ip), vehicle: other) 0 of 3; (dose: 400.0 mg/kg/injection, schedule: Q04DX002 (ip), vehicle: other) 0 of 3.

Consider `O=NN(CCCl)C(=O)Nc1ccc(Oc2ccc(NC(=O)N(CCCl)N=O)cc2)cc1`, for which the T/C reads like this: (dose: 20.0 mg/kg/injection, schedule: Q01DX001 (ip), vehicle: carboxymethylcellulose (CMC)) 144 % of control; (dose: 40.0 mg/kg/injection, schedule: Q01DX001 (ip), vehicle: carboxymethylcellulose (CMC)) 140 % of control; (dose: 60.0 mg/kg/injection, schedule: Q01DX001 (ip), vehicle: carboxymethylcellulose (CMC)) 134 % of control; (dose: 93.0 mg/kg/injection, schedule: Q01DX001 (ip), vehicle: carboxymethylcellulose (CMC)) 146 % of control; (dose: 187.0 mg/kg/injection, schedule: Q01DX001 (ip), vehicle: carboxymethylcellulose (CMC)) 146 % of control.

Consider `O=[N+]([O-])c1cc(C(F)(F)F)cc([N+](=O)[O-])c1N/N=C/c1ccc(Cl)cc1`, for which the T/C is, setting by setting: (dose: 50.0 mg/kg/injection, schedule: Q01DX009 (ip), vehicle: carboxymethylcellulose (CMC)) 87 (2×), 88, 104 % of control; under setting [4], 93, 96, 97 % of control; under setting [5], 90 and 95 % of control. Besides, the survivor count by setting is: under setting [4], 6 of 6; under setting [5], 3 of 3 and 6 of 6.

As to `Fc1ccc(NC(=S)SCc2ccc(Cl)c(Cl)c2)cc1F`, the T/C under setting [6] was 130 % of control and the T/C under setting [1] was 131 % of control.

As to `CC1C(c2ccccc2)OCCN1C` (configuration not stated), under setting [3], the survivor count was 2 of 4.

As to `ClCc1cc(Cl)c(Cl)cc1Cl`, the survivor count was 5 of 6 under setting [7]; 1 of 6 (dose: 225.0 mg/kg/injection, schedule: Q01DX009 (ip), vehicle: acetone); 1 of 6 (dose: 335.0 mg/kg/injection, schedule: Q01DX009 (ip), vehicle: acetone); 0 of 6 under setting [8].

For `CNC(=O)Nc1cc(C)ccc1Cl`, the T/C reads like this: under setting [4], 91, 96 [2 of 3 alive], 106 % of control; under setting [5], 87 [2 of 3 alive], 91, 96, 109 % of control. For the same compound, the survivor count under setting [4] is reported as 6 of 6 and the survivor count (dose: 400.0 mg/kg/injection, schedule: Q01DX009 (ip), vehicle: carboxymethylcellulose (CMC)) is given as 0 of 3.

For `CCCCN1C(=O)C2C3CCC(O3)C2C1=O` (configuration not stated), under setting [9], the survivor count was 1 of 3.

In the case of `CCC1(C)CC(=O)NC(=O)C1.[Tl]`, the survivor count (dose: 12.5 mg/kg/injection, schedule: Q01DX009 (ip), vehicle: water) is 4 of 6.

For `N#CCCC(=O)c1ccccn1`, the survivor count (dose: 100.0 mg/kg/injection, schedule: Q01DX009 (ip), vehicle: Klucel (hydroxypropylcellulose) (HPC)) was 6 of 6.

Turning to `OCCCC1CCCCN1` (configuration not stated), the survivor count by setting is: under setting [7], 2 of 6; under setting [8], 0 of 6.

Take `CN(C)CCC(O)C(c1ccccc1)c1ccccc1` (configuration not stated): the survivor count (dose: 300.0 mg/kg/injection, schedule: Q01DX001 (ip), vehicle: saline) is listed as 2 of 6.

Take `CC(C)(C)NCC1C(c2ccccc2)C1c1ccccc1` (configuration not stated): the survivor count (dose: 100.0 mg/kg/injection, schedule: Q04DX002 (ip), vehicle: Klucel (hydroxypropylcellulose) (HPC)) is 0 of 3 and 3 of 3; the survivor count under setting [10] was 0 of 3; the survivor count under setting [9] is 0 of 3.

Turning to `S=c1[nH]c2ccc(Cl)cc2s1`, the survivor count (dose: 200.0 mg/kg/injection, schedule: Q04DX003 (ip), vehicle: Klucel (hydroxypropylcellulose) (HPC)) was 6 of 6.

Consider `CCC(=O)c1ccc2c(c1)N(CCCN(C)C)c1ccccc1S2`, for which, under setting [6], the survivor count is recorded as 3 of 6.

As to `CCc1cc2oc(C)c(C)c2c2nc(C)oc12`, the survivor count under setting [10] is given as 3 of 3.

On to `CCCCCCCCCCCCSC(=O)CCC(=O)O`, for which, under “dose: 400.0 mg/kg/injection, schedule: Q04DX003 (ip), vehicle: Klucel (hydroxypropylcellulose) (HPC)”, the survivor count was 1 of 6.

In the case of `CS(=O)(=O)OCCCCCCCCCOS(C)(=O)=O`, the survivor count by setting is: under setting [2], 2 of 6; (dose: 300.0 mg/kg/injection, schedule: Q01DX001 (ip), vehicle: other) 0 of 6.
